Data from the supplement of paper PMC12823440, “Inhibitors supercharge kinase turnover through native proteolytic circuits” (Nature, 2025).
Structures can show the parent of a compound that is named as a salt. The list shows a part of the results. The calls rarely recur for the same compound in another form.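 In K562 cells expressing nanoluciferase-fused kinases, luminescence was recorded at 4 h intervals between 2 and 18 h, normalized as percent of control with DMSO at 100% and a positive control at 0%. A significant (2 sigma) signal drop marks a time point as decreased. The authors' rule for a hit is not shown and takes in more than the number of time points.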

Sequences of proteins named here, by UniProt entry; tags and fusion partners are left off. A change or cut given only in a name is not applied to a line headed by its entry.
UniProt P42356, whole entry, looked up: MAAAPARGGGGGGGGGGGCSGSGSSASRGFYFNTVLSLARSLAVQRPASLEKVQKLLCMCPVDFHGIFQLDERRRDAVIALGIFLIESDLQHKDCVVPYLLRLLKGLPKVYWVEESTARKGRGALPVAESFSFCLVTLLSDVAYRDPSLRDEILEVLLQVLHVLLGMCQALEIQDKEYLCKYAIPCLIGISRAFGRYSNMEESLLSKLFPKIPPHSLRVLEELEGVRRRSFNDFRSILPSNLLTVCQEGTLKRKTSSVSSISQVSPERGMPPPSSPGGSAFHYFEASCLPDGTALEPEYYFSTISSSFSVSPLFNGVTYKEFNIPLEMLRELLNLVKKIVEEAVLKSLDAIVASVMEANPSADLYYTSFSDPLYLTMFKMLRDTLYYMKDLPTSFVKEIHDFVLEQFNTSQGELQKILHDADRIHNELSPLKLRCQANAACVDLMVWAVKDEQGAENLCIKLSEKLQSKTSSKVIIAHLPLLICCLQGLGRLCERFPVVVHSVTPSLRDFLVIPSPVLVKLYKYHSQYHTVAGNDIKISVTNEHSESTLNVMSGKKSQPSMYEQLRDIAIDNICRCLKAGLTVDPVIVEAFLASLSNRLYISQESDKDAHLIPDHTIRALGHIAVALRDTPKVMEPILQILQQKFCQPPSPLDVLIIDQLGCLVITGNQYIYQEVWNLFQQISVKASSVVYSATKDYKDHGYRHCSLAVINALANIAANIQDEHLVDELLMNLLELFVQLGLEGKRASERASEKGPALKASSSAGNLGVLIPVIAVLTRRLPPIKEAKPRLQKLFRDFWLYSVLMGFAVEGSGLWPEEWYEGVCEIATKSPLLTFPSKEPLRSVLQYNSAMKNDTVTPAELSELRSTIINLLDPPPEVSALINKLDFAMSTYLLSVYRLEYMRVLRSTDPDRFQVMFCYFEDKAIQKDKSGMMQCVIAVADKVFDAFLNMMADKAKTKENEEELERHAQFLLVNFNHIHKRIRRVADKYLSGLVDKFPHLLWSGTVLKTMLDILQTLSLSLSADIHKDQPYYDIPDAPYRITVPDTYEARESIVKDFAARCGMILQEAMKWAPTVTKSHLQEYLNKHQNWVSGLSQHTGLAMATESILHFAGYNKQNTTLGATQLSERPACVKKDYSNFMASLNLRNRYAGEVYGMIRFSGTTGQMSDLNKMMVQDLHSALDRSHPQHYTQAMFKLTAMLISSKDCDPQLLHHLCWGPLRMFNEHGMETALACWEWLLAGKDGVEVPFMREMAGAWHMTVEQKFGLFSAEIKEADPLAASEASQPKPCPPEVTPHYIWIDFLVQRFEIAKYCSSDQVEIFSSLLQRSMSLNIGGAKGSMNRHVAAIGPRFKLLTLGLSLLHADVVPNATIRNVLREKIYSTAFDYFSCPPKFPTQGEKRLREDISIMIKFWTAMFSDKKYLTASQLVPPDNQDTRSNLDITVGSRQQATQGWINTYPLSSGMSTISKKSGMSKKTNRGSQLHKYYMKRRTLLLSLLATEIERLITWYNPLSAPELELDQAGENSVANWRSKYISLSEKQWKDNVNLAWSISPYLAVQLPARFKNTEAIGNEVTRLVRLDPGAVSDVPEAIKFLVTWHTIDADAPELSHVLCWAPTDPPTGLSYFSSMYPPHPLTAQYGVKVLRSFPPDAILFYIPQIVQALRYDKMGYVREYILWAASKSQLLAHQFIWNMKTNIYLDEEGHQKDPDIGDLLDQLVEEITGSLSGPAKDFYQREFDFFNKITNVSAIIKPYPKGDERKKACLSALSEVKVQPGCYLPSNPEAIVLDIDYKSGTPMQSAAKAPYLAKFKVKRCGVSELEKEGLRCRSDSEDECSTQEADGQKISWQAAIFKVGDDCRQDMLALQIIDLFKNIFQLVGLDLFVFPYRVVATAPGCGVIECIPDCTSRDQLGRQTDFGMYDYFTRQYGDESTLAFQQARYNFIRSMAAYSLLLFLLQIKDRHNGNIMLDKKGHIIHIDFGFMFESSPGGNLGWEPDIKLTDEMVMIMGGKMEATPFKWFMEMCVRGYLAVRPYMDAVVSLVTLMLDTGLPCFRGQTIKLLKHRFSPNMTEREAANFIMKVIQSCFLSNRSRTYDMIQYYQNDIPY
UniProt P07949, whole entry, looked up: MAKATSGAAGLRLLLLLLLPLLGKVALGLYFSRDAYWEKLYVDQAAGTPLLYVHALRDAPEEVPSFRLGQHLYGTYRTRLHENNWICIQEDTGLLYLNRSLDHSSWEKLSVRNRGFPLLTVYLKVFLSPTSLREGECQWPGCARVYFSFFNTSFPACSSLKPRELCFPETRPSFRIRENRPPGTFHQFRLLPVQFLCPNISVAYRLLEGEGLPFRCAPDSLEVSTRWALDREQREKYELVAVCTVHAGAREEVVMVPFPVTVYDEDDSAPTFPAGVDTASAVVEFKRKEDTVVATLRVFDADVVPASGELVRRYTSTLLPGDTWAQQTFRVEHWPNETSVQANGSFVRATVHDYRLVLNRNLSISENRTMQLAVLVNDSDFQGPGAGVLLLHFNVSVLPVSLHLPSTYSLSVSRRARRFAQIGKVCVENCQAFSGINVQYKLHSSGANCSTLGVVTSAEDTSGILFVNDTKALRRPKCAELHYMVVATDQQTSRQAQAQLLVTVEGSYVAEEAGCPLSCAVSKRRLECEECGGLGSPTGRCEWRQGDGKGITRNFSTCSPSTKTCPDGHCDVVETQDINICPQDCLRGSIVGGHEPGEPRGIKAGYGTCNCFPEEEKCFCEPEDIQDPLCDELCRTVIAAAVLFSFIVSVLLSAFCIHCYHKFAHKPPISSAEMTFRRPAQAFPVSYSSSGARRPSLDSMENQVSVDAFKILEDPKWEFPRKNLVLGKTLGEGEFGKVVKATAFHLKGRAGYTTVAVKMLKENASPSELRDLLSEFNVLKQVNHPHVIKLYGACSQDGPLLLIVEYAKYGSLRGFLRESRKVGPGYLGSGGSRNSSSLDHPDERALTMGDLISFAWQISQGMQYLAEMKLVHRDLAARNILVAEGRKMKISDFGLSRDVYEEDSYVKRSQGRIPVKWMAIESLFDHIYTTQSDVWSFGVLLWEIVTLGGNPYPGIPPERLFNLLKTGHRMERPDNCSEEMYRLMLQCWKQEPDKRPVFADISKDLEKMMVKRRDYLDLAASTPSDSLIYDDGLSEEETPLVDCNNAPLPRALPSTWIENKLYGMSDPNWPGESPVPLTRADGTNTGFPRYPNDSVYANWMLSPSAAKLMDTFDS
UniProt P07949, whole entry M918T, looked up: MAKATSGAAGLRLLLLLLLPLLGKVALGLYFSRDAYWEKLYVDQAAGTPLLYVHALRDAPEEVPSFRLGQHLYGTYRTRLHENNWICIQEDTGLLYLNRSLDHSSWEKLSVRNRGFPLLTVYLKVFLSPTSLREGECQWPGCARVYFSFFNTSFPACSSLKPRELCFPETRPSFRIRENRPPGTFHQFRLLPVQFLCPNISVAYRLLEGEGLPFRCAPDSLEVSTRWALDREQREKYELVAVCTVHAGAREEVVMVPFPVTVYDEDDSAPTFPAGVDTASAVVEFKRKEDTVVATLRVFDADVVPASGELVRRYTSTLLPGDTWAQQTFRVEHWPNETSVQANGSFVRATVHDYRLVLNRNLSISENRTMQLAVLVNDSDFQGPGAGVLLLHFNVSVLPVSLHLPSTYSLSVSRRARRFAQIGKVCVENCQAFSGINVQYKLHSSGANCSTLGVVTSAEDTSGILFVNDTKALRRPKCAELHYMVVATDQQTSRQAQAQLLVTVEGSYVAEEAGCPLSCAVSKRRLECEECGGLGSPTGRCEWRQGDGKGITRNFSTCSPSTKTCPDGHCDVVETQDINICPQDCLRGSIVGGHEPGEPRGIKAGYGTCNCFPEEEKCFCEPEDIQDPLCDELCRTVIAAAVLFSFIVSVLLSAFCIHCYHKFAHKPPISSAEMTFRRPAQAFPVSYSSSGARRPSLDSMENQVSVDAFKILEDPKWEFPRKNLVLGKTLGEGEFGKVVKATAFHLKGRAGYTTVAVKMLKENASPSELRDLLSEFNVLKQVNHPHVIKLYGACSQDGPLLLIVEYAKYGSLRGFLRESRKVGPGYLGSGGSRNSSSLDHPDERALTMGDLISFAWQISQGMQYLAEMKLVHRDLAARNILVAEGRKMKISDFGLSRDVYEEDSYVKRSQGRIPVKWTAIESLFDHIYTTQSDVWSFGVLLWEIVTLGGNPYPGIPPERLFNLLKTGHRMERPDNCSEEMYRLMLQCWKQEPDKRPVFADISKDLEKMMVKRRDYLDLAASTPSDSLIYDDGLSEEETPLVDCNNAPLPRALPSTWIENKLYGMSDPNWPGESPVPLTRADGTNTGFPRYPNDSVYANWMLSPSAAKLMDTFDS
UniProt Q9BRS2: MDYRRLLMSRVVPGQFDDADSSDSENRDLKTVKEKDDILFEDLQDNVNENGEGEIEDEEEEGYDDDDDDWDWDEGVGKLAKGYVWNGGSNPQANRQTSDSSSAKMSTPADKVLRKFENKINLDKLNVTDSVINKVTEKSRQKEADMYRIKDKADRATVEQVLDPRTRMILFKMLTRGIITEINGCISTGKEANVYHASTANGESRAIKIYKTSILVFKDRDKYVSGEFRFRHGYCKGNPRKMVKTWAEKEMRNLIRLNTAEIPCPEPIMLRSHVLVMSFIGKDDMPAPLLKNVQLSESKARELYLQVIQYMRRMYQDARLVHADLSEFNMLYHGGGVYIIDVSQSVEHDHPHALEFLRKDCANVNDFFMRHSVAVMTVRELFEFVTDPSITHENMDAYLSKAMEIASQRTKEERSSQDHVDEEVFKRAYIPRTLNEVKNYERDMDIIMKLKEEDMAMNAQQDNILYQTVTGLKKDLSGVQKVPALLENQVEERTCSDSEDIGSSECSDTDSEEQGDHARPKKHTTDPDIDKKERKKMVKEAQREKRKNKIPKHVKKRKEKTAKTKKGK
UniProt Q13546: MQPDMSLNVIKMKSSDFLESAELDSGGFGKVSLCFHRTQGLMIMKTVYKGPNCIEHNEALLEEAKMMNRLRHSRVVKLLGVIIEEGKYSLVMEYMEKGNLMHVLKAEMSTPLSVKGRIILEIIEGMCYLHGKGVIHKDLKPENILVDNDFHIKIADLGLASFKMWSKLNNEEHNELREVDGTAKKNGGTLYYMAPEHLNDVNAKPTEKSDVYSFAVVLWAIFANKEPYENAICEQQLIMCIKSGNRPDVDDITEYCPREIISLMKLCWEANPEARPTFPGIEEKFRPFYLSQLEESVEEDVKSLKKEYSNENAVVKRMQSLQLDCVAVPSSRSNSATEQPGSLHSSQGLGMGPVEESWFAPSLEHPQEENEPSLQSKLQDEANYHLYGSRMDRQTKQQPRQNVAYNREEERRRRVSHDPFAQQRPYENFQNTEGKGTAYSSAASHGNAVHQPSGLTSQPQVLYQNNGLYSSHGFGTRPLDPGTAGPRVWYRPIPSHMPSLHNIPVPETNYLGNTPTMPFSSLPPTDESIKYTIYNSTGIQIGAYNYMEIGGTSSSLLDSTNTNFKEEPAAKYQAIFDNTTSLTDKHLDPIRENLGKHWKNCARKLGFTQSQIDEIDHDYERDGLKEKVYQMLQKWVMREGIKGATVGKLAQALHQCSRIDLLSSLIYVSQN

Legend:
Assay in all cases: kinase-Nluc reporter destabilization hit call (1 = scored as downregulated) (binary); higher = compound decreases kinase abundance
Conditions in all cases: K562; 2-18 h
PDPK1 = PDPK1 (UniProt O15530)
PIK4CA = PIK4CA (UniProt P42356)
PIK4CB = PIK4CB (UniProt Q9UBF8)
PLK1 = PLK1 (UniProt P53350)
PRKAA1 = PRKAA1 (UniProt Q13131)
PRKCA = PRKCA (UniProt P17252)
PTK2 = PTK2 (UniProt Q05397)
PTK2B = PTK2B (UniProt Q14289)
RAF1 = RAF1 (UniProt P04049)
[1] = biological target: RAF1_S257L (clone: RAF1_mut) (UniProt P04049)
RET = RET (UniProt P07949)
[2] = biological target: RET_M918T (clone: RET_mut) (UniProt P07949)
RIOK1 = RIOK1 (UniProt Q9BRS2)
RIPK1 = RIPK1 (UniProt Q13546)
RIPK2 = RIPK2 (UniProt O43353)
ROR2 = ROR2 (UniProt Q01974)
RPS6KA1 = RPS6KA1 (UniProt Q15418)
SPHK1 = SPHK1 (UniProt Q9NYA1)
SRC = SRC (UniProt P12931)
STK24 = STK24 (UniProt Q9Y6E0)

Measured: kinase-Nluc reporter destabilization hit call

c1cc(-c2c[nH]c3nccc(N4CCC[C@@]5(CCCCN5)C4)c23)ncn1 (10 µM)
inactive: PDPK1 = 0 | PIK4CA 0 | PIK4CB 0 | PLK1 = 0 | PRKAA1 = 0 | PRKCA 0 | PTK2 = 0 | PTK2B 0 | RAF1 = 0 | [1] 0 | RET 0 | [2] 0 | RIOK1 = 0 | RIPK1 = 0 | RIPK2 = 0 | ROR2 = 0 | RPS6KA1 = 0 | SPHK1 = 0 | SRC 0 | STK24 = 0

Cc1[nH]c(/C=C2\C(=O)Nc3ccccc32)c(C)c1CCC(=O)O [Orantinib] (10 µM)
inactive: PDPK1 = 0 | PIK4CA 0 | PIK4CB 0 | PLK1 = 0 | PRKAA1 = 0 | PRKCA 0 | PTK2 = 0 | PTK2B 0 | RAF1 = 0 | [1] 0 | RET 0 | [2] 0 | RIOK1 = 0 | RIPK1 = 0 | RIPK2 = 0 | ROR2 = 0 | SPHK1 = 0 | SRC 0 | STK24 = 0

CC#CC(=O)N1CC[C@@H](n2c(=O)n(-c3ccc(Oc4ccccc4)cc3)c3c(N)ncnc32)C1 [Tirabrutinib] (10 µM)
inactive: PDPK1 = 0 | PIK4CA 0 | PIK4CB 0 | PLK1 = 0 | PRKAA1 = 0 | PRKCA 0 | PTK2 = 0 | PTK2B 0 | RAF1 = 0 | [1] 0 | RET 0 | [2] 0 | RIOK1 = 0 | RIPK1 = 0 | RIPK2 = 0 | ROR2 = 0 | RPS6KA1 = 0 | SPHK1 = 0 | SRC 0 | STK24 = 0

O=C(O)CCC(=O)Nc1ccc(Br)cn1 [Bikinin] (10 µM)
inactive: PDPK1 = 0 | PIK4CA 0 | PIK4CB 0 | PLK1 = 0 | PRKAA1 = 0 | PRKCA 0 | PTK2 = 0 | PTK2B 0 | RAF1 = 0 | [1] 0 | RET 0 | [2] 0 | RIOK1 = 0 | RIPK1 = 0 | RIPK2 = 0 | ROR2 = 0 | RPS6KA1 = 0 | SPHK1 = 0 | SRC 0 | STK24 = 0

COc1cc2c(cc1OC)CN(S(=O)(=O)c1ccc(OC)c(N3CCN(C(=O)c4ccc(F)cc4C(F)(F)F)CC3)c1)CC2 (10 µM)
inactive: PDPK1 = 0 | PIK4CA 0 | PIK4CB 0 | PLK1 = 0 | PRKAA1 = 0 | PRKCA 0 | PTK2 = 0 | PTK2B 0 | RAF1 = 0 | [1] 0 | RET 0 | [2] 0 | RIOK1 = 0 | RIPK1 = 0 | RIPK2 = 0 | ROR2 = 0 | RPS6KA1 = 0 | SPHK1 = 0 | SRC 0 | STK24 = 0

Cn1cc(-c2ccc3nnc(Sc4ccc5ncccc5c4)n3n2)cn1 (10 µM)
inactive: PDPK1 = 0 | PIK4CA 0 | PIK4CB 0 | PLK1 = 0 | PRKAA1 = 0 | PRKCA 0 | PTK2 = 0 | PTK2B 0 | RAF1 = 0 | [1] 0 | RET 0 | [2] 0 | RIOK1 = 0 | RIPK1 = 0 | RIPK2 = 0 | ROR2 = 0 | RPS6KA1 = 0 | SPHK1 = 0 | SRC 0 | STK24 = 0

Part of the list above in order of length of the SMILES, high to low:
COc1cc2c(cc1OC)CN(S(=O)(=O)c1ccc(OC)c(N3CCN(C(=O)c4ccc(F)cc4C(F)(F)F)CC3)c1)CC2 (10 µM)
inactive: PDPK1 = 0 | PIK4CA 0 | PIK4CB 0 | PLK1 = 0 | PRKAA1 = 0 | PRKCA 0 | PTK2 = 0 | PTK2B 0 | RAF1 = 0 | [1] 0 | RET 0 | [2] 0 | RIOK1 = 0 | RIPK1 = 0 | RIPK2 = 0 | ROR2 = 0 | RPS6KA1 = 0 | SPHK1 = 0 | SRC 0 | STK24 = 0

CC#CC(=O)N1CC[C@@H](n2c(=O)n(-c3ccc(Oc4ccccc4)cc3)c3c(N)ncnc32)C1 [Tirabrutinib] (10 µM)
inactive: PDPK1 = 0 | PIK4CA 0 | PIK4CB 0 | PLK1 = 0 | PRKAA1 = 0 | PRKCA 0 | PTK2 = 0 | PTK2B 0 | RAF1 = 0 | [1] 0 | RET 0 | [2] 0 | RIOK1 = 0 | RIPK1 = 0 | RIPK2 = 0 | ROR2 = 0 | RPS6KA1 = 0 | SPHK1 = 0 | SRC 0 | STK24 = 0

Cc1[nH]c(/C=C2\C(=O)Nc3ccccc32)c(C)c1CCC(=O)O [Orantinib] (10 µM)
inactive: PDPK1 = 0 | PIK4CA 0 | PIK4CB 0 | PLK1 = 0 | PRKAA1 = 0 | PRKCA 0 | PTK2 = 0 | PTK2B 0 | RAF1 = 0 | [1] 0 | RET 0 | [2] 0 | RIOK1 = 0 | RIPK1 = 0 | RIPK2 = 0 | ROR2 = 0 | SPHK1 = 0 | SRC 0 | STK24 = 0

More entries follow:

C[C@H](c1ccnc(Nc2nc3ccc(-c4cc(N(C)C)ncn4)cc3[nH]2)c1)N1CCN(C(=O)CC(F)(F)F)CC1 (2.5 µM)
inactive: PDPK1 = 0 | PIK4CA 0 | PIK4CB 0 | PLK1 = 0 | PRKAA1 = 0 | PRKCA 0 | PTK2 = 0 | PTK2B 0 | RAF1 = 0 | [1] 0 | RET 0 | [2] 0 | RIOK1 = 0 | RIPK1 = 0 | RIPK2 = 0 | ROR2 = 0 | RPS6KA1 = 0 | SPHK1 = 0 | SRC 0 | STK24 = 0

CCNc1nc(Nc2cc(F)c(C(=O)N3CCOCC3)cc2OC)ncc1C(F)(F)F [GNE-7915 (tosylate)] (10 µM)
inactive: PDPK1 = 0 | PIK4CA 0 | PIK4CB 0 | PLK1 = 0 | PRKAA1 = 0 | PRKCA 0 | PTK2 = 0 | PTK2B 0 | RAF1 = 0 | [1] 0 | RET 0 | [2] 0 | RIOK1 = 0 | RIPK1 = 0 | RIPK2 = 0 | ROR2 = 0 | RPS6KA1 = 0 | SPHK1 = 0 | SRC 0 | STK24 = 0

COc1ccc2c(OCc3nnc4ccc(-c5ccccc5)nn34)ccnc2c1 (2 µM)
inactive: PDPK1 = 0 | PIK4CA 0 | PIK4CB 0 | PLK1 = 0 | PRKAA1 = 0 | PRKCA 0 | PTK2 = 0 | PTK2B 0 | RAF1 = 0 | [1] 0 | RET 0 | [2] 0 | RIOK1 = 0 | RIPK1 = 0 | RIPK2 = 0 | ROR2 = 0 | RPS6KA1 = 0 | SPHK1 = 0 | SRC 0 | STK24 = 0

Cc1ccc(C(=O)Nc2ccc(Oc3cc4cnn(C)c4cc3-c3cn[nH]c3)c(F)c2)c(=O)n1-c1ccc(F)cc1 [Merestinib dihydrochloride] (2.5 µM)
inactive: PDPK1 = 0 | PIK4CA 0 | PIK4CB 0 | PLK1 = 0 | PRKAA1 = 0 | PRKCA 0 | PTK2 = 0 | PTK2B 0 | RAF1 = 0 | [1] 0 | RET 0 | [2] 0 | RIOK1 = 0 | RIPK1 = 0 | RIPK2 = 0 | ROR2 = 0 | RPS6KA1 = 0 | SPHK1 = 0 | SRC 0 | STK24 = 0

CCN1CCN(Cc2ccc(Nc3ncc(F)c(-c4cc(F)c5nc(C)n(C(C)C)c5c4)n3)nc2)CC1 [Abemaciclib] (2 µM)
inactive: PDPK1 = 0 | PIK4CA 0 | PIK4CB 0 | PLK1 = 0 | PRKAA1 = 0 | PRKCA 0 | PTK2 = 0 | PTK2B 0 | RAF1 = 0 | [1] 0 | RET 0 | [2] 0 | RIOK1 = 0 | RIPK1 = 0 | RIPK2 = 0 | ROR2 = 0 | RPS6KA1 = 0 | SPHK1 = 0 | SRC 0 | STK24 = 0

NC(=O)c1ccc(-c2nc(-c3ccc4c(c3)OCCO4)c(-c3ccccn3)[nH]2)cc1 (10 µM)
inactive: PDPK1 = 0 | PIK4CA 0 | PIK4CB 0 | PLK1 = 0 | PRKAA1 = 0 | PRKCA 0 | PTK2 = 0 | PTK2B 0 | RAF1 = 0 | [1] 0 | RET 0 | [2] 0 | RIOK1 = 0 | RIPK1 = 0 | RIPK2 = 0 | ROR2 = 0 | RPS6KA1 = 0 | SPHK1 = 0 | SRC 0 | STK24 = 0

CN1C(=O)N[C@H](Cc2c[nH]c3c(Cl)cccc23)C1=O [Necrostatin 2] (10 µM)
inactive: PDPK1 = 0 | PIK4CA 0 | PIK4CB 0 | PLK1 = 0 | PRKAA1 = 0 | PRKCA 0 | PTK2 = 0 | PTK2B 0 | RAF1 = 0 | [1] 0 | RET 0 | [2] 0 | RIOK1 = 0 | RIPK1 = 0 | RIPK2 = 0 | ROR2 = 0 | RPS6KA1 = 0 | SPHK1 = 0 | SRC 0 | STK24 = 0

Cc1nc(-c2cn3c(n2)-c2ccc(-c4cnn(C(C)(C)C(N)=O)c4)cc2OCC3)n(C(C)C)n1 [Taselisib] (10 µM)
inactive: PDPK1 = 0 | PIK4CA 0 | PIK4CB 0 | PLK1 = 0 | PRKAA1 = 0 | PRKCA 0 | PTK2 = 0 | PTK2B 0 | RAF1 = 0 | [1] 0 | RET 0 | [2] 0 | RIOK1 = 0 | RIPK1 = 0 | RIPK2 = 0 | ROR2 = 0 | RPS6KA1 = 0 | SPHK1 = 0 | SRC 0 | STK24 = 0

Cc1ccccc1-n1c([C@H](C)Nc2nc(N)nc3nc[nH]c23)nc2cccc(C)c2c1=O [CAL-130 (Hydrochloride)] (10 µM)
inactive: PDPK1 = 0 | PIK4CA 0 | PIK4CB 0 | PLK1 = 0 | PRKAA1 = 0 | PRKCA 0 | PTK2 = 0 | PTK2B 0 | RAF1 = 0 | [1] 0 | RET 0 | [2] 0 | RIOK1 = 0 | RIPK1 = 0 | RIPK2 = 0 | ROR2 = 0 | RPS6KA1 = 0 | SPHK1 = 0 | SRC 0 | STK24 = 0

Cc1cc(CN2CCN(c3c(Br)cnc4nc(-c5ccc(N6CCN(C)CC6)cc5)[nH]c34)CC2)no1 (2.5 µM)
inactive: PDPK1 = 0 | PIK4CA 0 | PIK4CB 0 | PLK1 = 0 | PRKAA1 = 0 | PRKCA 0 | PTK2 = 0 | PTK2B 0 | RAF1 = 0 | [1] 0 | RET 0 | [2] 0 | RIOK1 = 0 | RIPK1 = 0 | RIPK2 = 0 | ROR2 = 0 | RPS6KA1 = 0 | SPHK1 = 0 | SRC 0 | STK24 = 0
